Laboratory results as given in patent US20090264508.
Construct, isoform or probe ends are uncertain for at least one entry. For some assays here: A weaker result is weaker than the reference pair of the same experiment. For some assays here: Where a protein sequence is shown, tags need not be part of it.

What was measured:
[1] = biological target: von Willebrand Factor (VWF) (Homo sapiens) (UniProt P04275); experiment: SELEX; details: 2'-F pyrimidines, 2'-OH purines (printed 5-hydroxyl); isolated by binding and inhibiting VWF; purified native protein
Coagulation Factor VII = biological target: T1, Coagulation Factor VII (UniProt P08709); experiment: binding assay; details: can also bind Factor VII; purified native protein
T1 sequence (looked up, limits assumed): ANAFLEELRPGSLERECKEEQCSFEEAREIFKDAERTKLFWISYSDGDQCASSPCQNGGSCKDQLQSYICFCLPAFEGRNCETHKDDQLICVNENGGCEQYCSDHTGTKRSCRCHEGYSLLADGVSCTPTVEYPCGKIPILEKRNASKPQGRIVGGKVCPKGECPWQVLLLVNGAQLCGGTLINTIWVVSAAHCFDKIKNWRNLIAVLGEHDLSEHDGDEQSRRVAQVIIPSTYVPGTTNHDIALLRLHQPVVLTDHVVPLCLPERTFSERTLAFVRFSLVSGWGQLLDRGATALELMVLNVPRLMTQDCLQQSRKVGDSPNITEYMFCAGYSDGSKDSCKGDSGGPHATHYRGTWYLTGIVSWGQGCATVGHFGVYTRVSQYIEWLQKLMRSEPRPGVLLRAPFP

[2] = biological target: Coagulation Factor II (prothrombin) (UniProt P00734); experiment: binding assay; details: binds Factor II minimally; purified native protein

Sequence	selection result [1]	also measured
UGGACGAACUGCCCUCAGCUACUUUCAUGUUGCUGACGCA [VWF R9.14]	selected	–
CGCGACAGAUCGUAUAAUAGUCAACGCUCUAACCAAUCAC [7K-84]	–	binding result (Coagulation Factor VII): binds
AUCGCGCUCUCCUGCUUAAGCAGCUAUCAAAAAGCCCACU [Q-W1-9]	selected	–
GCCAAGGACCGAGGCCCCAACUGACAGUUUCAACAAGCG [7K-58]	–	binding result (Coagulation Factor VII): binds
ACCGCGCUCUCCUGCUUAAGCAGCUAUCAAAUAGCCCACU [Q_W3-6]	selected	–
UAUACCACAGCCUGAGAUUAACCACCAACCCAGGACU [VWF R9.2]	selected	–
CGAGCCGGACUUCAGCCAGUGAUAUGAUGCGACACACUGC [9D-11]	–	binding result [2]: binds more weakly
AUCGCGCUCUCCUGCUUAAGCAGCUAUCAAAUAGCCCACU [FM10]	selected	–
